Source: PMC10996005 (Journal of the American Chemical Society, 2024)

How the values were obtained:
[1] = general procedure: Fmoc solid-phase peptide synthesis; Wang resin preloaded with the first amino acid (Novabiochem); DIC/HOBt; details: for final HPLC purity: analytical HPLC; for isolated yield: overall
[2] = general procedure: Fmoc solid-phase peptide synthesis; Fmoc-Leu-Wang resin; DIC/HOBt; details: whole synthesis
[3] = general procedure: Fmoc solid-phase peptide synthesis; Fmoc-Val-Wang resin; DIC/HOBt; details: whole synthesis, scale 0.2 mmol
[4] = general procedure: Fmoc solid-phase peptide synthesis; Fmoc-Ile-Wang resin; DIC/HOBt; details: whole synthesis
[5] = whole synthesis, scale of the general procedure 0.05-0.2 mmol

Row | Substance | final HPLC purity [1, 5] [% purity] | isolated yield [1, 5] [% overall yield] | isolated mass ([4]; scale 0.1 mmol) [mg] | also measured
1 | PEPTIDE1{I.A.F.C.R.L}$PEPTIDE1,PEPTIDE1,6:R2-1:R1$$$V2.0 | 93 | 14 | – | isolated mass ([2]; scale 0.1 mmol): 10 mg
2 | PEPTIDE1{I.F.C.R.L.L}$PEPTIDE1,PEPTIDE1,6:R2-1:R1$$$V2.0 | 95 | 56 | – | isolated mass ([2]; scale 0.2 mmol): 83 mg
3 | PEPTIDE1{I.I.A.C.R.L}$PEPTIDE1,PEPTIDE1,6:R2-1:R1$$$V2.0 | 86 | 46 | – | isolated mass ([2]; scale 0.1 mmol): 31 mg
4 | PEPTIDE1{I.I.F.C.R.L}$PEPTIDE1,PEPTIDE1,6:R2-1:R1$$$V2.0 | 99 | 40 | – | isolated mass ([2]; scale 0.2 mmol): 60 mg
5 | PEPTIDE1{I.I.F.C.R.V}$PEPTIDE1,PEPTIDE1,6:R2-1:R1$$$V2.0 | 96 | 12 | – | isolated mass [3]: 18 mg
6 | cyclo(ALIIFC) (SMILES CC[C@H](C)[C@@H]1NC(=O)[C@H](CC(C)C)NC(=O)[C@H](C)NC(=O)[C@H](CS)NC(=O)[C@H](Cc2ccccc2)NC(=O)[C@H]([C@@H](C)CC)NC1=O) | 90 | 10 | – | isolated mass ([2]; scale 0.2 mmol): 13 mg
7 | cyclo(ARLIIF) (SMILES CC[C@H](C)[C@@H]1NC(=O)[C@H](CC(C)C)NC(=O)[C@H](CCCNC(=N)N)NC(=O)[C@H](C)NC(=O)[C@H](Cc2ccccc2)NC(=O)[C@H]([C@@H](C)CC)NC1=O) | 94 | 46 | – | isolated mass ([2]; scale 0.1 mmol): 33 mg
8 | cyclo(CKLIIF) (SMILES CC[C@H](C)[C@@H]1NC(=O)[C@H](CC(C)C)NC(=O)[C@H](CCCCN)NC(=O)[C@H](CS)NC(=O)[C@H](Cc2ccccc2)NC(=O)[C@H]([C@@H](C)CC)NC1=O) | 91 | 7 | – | isolated mass ([2]; scale 0.2 mmol): 10 mg
9 | cyclo(CKLLIF) (SMILES CC[C@H](C)[C@@H]1NC(=O)[C@H](CC(C)C)NC(=O)[C@H](CC(C)C)NC(=O)[C@H](CCCCN)NC(=O)[C@H](CS)NC(=O)[C@H](Cc2ccccc2)NC1=O) | 97 | 16 | – | isolated mass ([2]; scale 0.2 mmol): 23 mg
10 | cyclo(CRAIIF) (SMILES CC[C@H](C)[C@@H]1NC(=O)[C@H](C)NC(=O)[C@H](CCCNC(=N)N)NC(=O)[C@H](CS)NC(=O)[C@H](Cc2ccccc2)NC(=O)[C@H]([C@@H](C)CC)NC1=O) | 90 | 10 | – | isolated mass ([2]; scale 0.1 mmol): 7 mg
11 | cyclo(CRLAIF) (SMILES CC[C@H](C)[C@@H]1NC(=O)[C@H](C)NC(=O)[C@H](CC(C)C)NC(=O)[C@H](CCCNC(=N)N)NC(=O)[C@H](CS)NC(=O)[C@H](Cc2ccccc2)NC1=O) | 99 | 33 | – | isolated mass ([2]; scale 0.1 mmol): 23 mg
12 | cyclo(CRLIIY) (SMILES CC[C@H](C)[C@@H]1NC(=O)[C@H](CC(C)C)NC(=O)[C@H](CCCNC(=N)N)NC(=O)[C@H](CS)NC(=O)[C@H](Cc2ccc(O)cc2)NC(=O)[C@H]([C@@H](C)CC)NC1=O) | 85 | 66 | 50 | –
13 | cyclo(CRLII[Phg]) (SMILES CC[C@H](C)[C@@H]1NC(=O)[C@H](CC(C)C)NC(=O)[C@H](CCCNC(=N)N)NC(=O)[C@H](CS)NC(=O)[C@H](c2ccccc2)NC(=O)[C@H]([C@@H](C)CC)NC1=O) | 93 | 41 | – | isolated mass ([4]; scale 0.05 mmol): 15 mg
14 | cyclo(CRLILF) (SMILES CC[C@H](C)[C@@H]1NC(=O)[C@H](CC(C)C)NC(=O)[C@H](CCCNC(=N)N)NC(=O)[C@H](CS)NC(=O)[C@H](Cc2ccccc2)NC(=O)[C@H](CC(C)C)NC1=O) | 99 | 57 | – | isolated mass ([2]; scale 0.1 mmol): 43 mg
15 | cyclo(CRLIVF) (SMILES CC[C@H](C)[C@@H]1NC(=O)[C@H](CC(C)C)NC(=O)[C@H](CCCNC(=N)N)NC(=O)[C@H](CS)NC(=O)[C@H](Cc2ccccc2)NC(=O)[C@H](C(C)C)NC1=O) | 81 | 21 | 15 | –
16 | cyclo(CRLI[Nle]F) (SMILES CCCC[C@@H]1NC(=O)[C@H]([C@@H](C)CC)NC(=O)[C@H](CC(C)C)NC(=O)[C@H](CCCNC(=N)N)NC(=O)[C@H](CS)NC(=O)[C@H](Cc2ccccc2)NC1=O) | 96 | 59 | – | isolated mass ([2]; scale 0.1 mmol): 44 mg

Row | Substance | final HPLC purity [1, 5] [% purity] | isolated yield [1, 5] [% overall yield] | isolated mass ([4]; scale 0.1 mmol) [mg] | also measured
17 | cyclo(CRLI[Nva]F) (SMILES CCC[C@@H]1NC(=O)[C@H]([C@@H](C)CC)NC(=O)[C@H](CC(C)C)NC(=O)[C@H](CCCNC(=N)N)NC(=O)[C@H](CS)NC(=O)[C@H](Cc2ccccc2)NC1=O) | 97 | 44 | – | isolated mass ([2]; scale 0.1 mmol): 32 mg
18 | cyclo(FSRLII) (SMILES CC[C@H](C)[C@@H]1NC(=O)[C@H](CC(C)C)NC(=O)[C@H](CCCNC(=N)N)NC(=O)[C@H](CO)NC(=O)[C@H](Cc2ccccc2)NC(=O)[C@H]([C@@H](C)CC)NC1=O) | 95 | 22 | 16 | –
19 | cyclo(FTRLII) (SMILES CC[C@H](C)[C@@H]1NC(=O)[C@H](CC(C)C)NC(=O)[C@H](CCCNC(=N)N)NC(=O)[C@H]([C@@H](C)O)NC(=O)[C@H](Cc2ccccc2)NC(=O)[C@H]([C@@H](C)CC)NC1=O) | 94 | 35 | 26 | –
20 | cyclo(F[Pen]RLII) (SMILES CC[C@H](C)[C@@H]1NC(=O)[C@H](CC(C)C)NC(=O)[C@H](CCCNC(=N)N)NC(=O)[C@H](C(C)(C)S)NC(=O)[C@H](Cc2ccccc2)NC(=O)[C@H]([C@@H](C)CC)NC1=O) | – | – | – | cyclisation yield ([1]; cyclisation step): 32%; step yield ([1]; late stage modification step): 78%; final HPLC purity ([1]; late stage modification step): 81% purity
21 | cyclo([Abu]FCRLI) (SMILES CC[C@@H]1NC(=O)[C@H]([C@@H](C)CC)NC(=O)[C@H](CC(C)C)NC(=O)[C@H](CCCNC(=N)N)NC(=O)[C@H](CS)NC(=O)[C@H](Cc2ccccc2)NC1=O) | 97 | 67 | – | isolated mass ([2]; scale 0.1 mmol): 48 mg
22 | cyclo([Aib]FCRLI) (SMILES CC[C@H](C)[C@@H]1NC(=O)[C@H](CC(C)C)NC(=O)[C@H](CCCNC(=N)N)NC(=O)[C@H](CS)NC(=O)[C@H](Cc2ccccc2)NC(=O)C(C)(C)NC1=O) | 99 | 25 | 18 | –
23 | cyclo-CRLII(D-Phe) | 84 | 23 | 17 | –
24 | cyclo-CRLIIF(4-Br) | 94 | 59 | 48 | –
25 | cyclo-CRLIIF(4-Bz) | 99 | 55 | 47 | –
26 | cyclo-CRLIIF(4-CF3) | 99 | 30 | – | isolated mass ([4]; scale 0.05 mmol): 12 mg
27 | cyclo-CRLIIF(4-CN) | 86 | 49 | 38 | –
28 | cyclo-CRLIIF(4-Cl) | 82 | 67 | 52 | –
29 | cyclo-CRLIIF(4-F) | 87 | 57 | 43 | –
30 | cyclo-CRLIIF(4-I) | 99 | 53 | 46 | –
31 | cyclo-CRLIIF(4-NO2) | 99 | 57 | – | isolated mass ([4]; scale 0.2 mmol): 90 mg
32 | cyclo-CRLIIY(Me) | 88 | 54 | 42 | –

For part of these data: Strings that start with PEPTIDE1 are HELM notation: dots part the residues, brackets hold end groups and non-standard residues. [ ]: non-standard residue; d: D form. Pen = CC(C)(S)[C@H](N)C(=O)O; Phg = N[C@H](C(=O)O)c1ccccc1; Nle = CCCC[C@H](N)C(=O)O; Nva = CCC[C@H](N)C(=O)O; Abu = CC[C@H](N)C(=O)O; Aib = CC(C)(N)C(=O)O
